Results reported in publication PMC10785435.
These are yes or no findings as the source states them, for the method shown. Some results given as binding are weak or reduced against the parent protein; the word gives no strength. Where a sequence is shown, tags or fusion partners need not be part of it.

B1: GST-tagged ANGPTL4 protein (protein, UniProt Q9BY76 26-406)
chain: GPVQSKSPRFASWDEMNVLAHGLLQLGQGLREHAERTRSQLSALERRLSACGSACQGTEGSTDLPLAPESRVDPEVLHSLQTQLKAQNSRIQQLFHKVAQQQRHLEKQHLRIQHLQSQFGLLDHKHLDHEVAKPARRKRLPEMAQPVDPAHNVSRLHRLPRDCQELFQVGERQSGLFEIQPQGSPPFLVNCKMTSDGGWTVIQRRHDGSVDFNRPWEAYKAGFGDPHGEFWLGLEKVHSITGDRNSRLAVQLRDWDGNAELLQFSVHLGGEDTAYSLQLTAPVAGQLGATTVPPSGLSVPFSTWDQDHDLRRDKNCAKSLSGGWWFGTCSHSNLNGQYFRSIPQQRQKLKKGIFWKTWRGRYYPLQATTMLIQPMAAEAAS
B2: His-recombinant human ESM1 (protein, UniProt Q9NQ30 20-184)
chain: WSNNYAVDCPQHCDSSECKSSPRCKRTVLDDCGCCRVCAAGRGETCYRTVSGMDGMKCGPGLRCQPSNGEDPFGEEFGICKDCPYGTFGMDCRETCNCQSGICDRGTGKCLKFPFFQYSVTKSSNRFVSLTEHDMASGDGNIVREEVVKENAAGSPVMRKWLNPR

Legend:
[1] = target: T1, His-recombinant human ESM1 (human) (UniProt Q9NQ30); assay: pull-down; reciprocal pull-downs of His-rhESM1 and GST-ANGPTL4; Ni Sepharose High-Performance resin, 4 °C overnight, washing, SDS-PAGE and detection with antibody; glutathione-Sepharose 4B beads for GST-ANGPTL4; both purified
T1 sequence: B2 chain

[2] = target: T2, GST-tagged ANGPTL4 protein (UniProt Q9BY76); assay: as above
T2 sequence: B1 chain

binding [1]	binding [2]	Binder
binds	–	B1
–	binds	B2
